Results taken from the supplement of paper PMC6411743.
± gives the standard deviation of the averaged measurements. The list shows a part of the results, in another mix than the full data. Most entries show no effect beyond the scatter of the controls.

Protein sequences, listed by entry. Tags and fused reporters are not part of them. Lines headed by an entry give the natural chain unless they say otherwise; changes in a name come on top.
UniProt Q9NR46: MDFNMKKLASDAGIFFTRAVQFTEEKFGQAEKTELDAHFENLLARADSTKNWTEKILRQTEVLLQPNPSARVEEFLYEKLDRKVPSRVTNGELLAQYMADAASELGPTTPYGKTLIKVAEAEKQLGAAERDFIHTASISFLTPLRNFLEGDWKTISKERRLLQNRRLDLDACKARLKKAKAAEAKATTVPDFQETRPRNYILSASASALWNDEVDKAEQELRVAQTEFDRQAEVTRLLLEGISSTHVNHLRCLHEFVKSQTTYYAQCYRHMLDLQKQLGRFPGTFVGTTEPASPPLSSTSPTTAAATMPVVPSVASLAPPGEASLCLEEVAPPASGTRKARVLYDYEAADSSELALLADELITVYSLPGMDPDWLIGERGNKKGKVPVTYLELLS
UniProt Q6UWZ7: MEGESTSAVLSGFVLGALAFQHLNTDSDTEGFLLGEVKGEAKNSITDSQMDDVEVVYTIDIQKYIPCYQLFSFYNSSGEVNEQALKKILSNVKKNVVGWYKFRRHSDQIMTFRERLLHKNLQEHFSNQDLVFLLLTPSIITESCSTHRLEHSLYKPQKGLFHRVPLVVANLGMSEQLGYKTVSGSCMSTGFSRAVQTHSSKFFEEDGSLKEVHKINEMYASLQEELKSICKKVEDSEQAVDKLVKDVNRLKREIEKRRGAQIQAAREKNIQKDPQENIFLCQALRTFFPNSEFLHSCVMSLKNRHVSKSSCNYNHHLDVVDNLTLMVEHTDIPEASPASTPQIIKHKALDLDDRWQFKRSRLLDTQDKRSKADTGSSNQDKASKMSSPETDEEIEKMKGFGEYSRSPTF
UniProt A0PK00: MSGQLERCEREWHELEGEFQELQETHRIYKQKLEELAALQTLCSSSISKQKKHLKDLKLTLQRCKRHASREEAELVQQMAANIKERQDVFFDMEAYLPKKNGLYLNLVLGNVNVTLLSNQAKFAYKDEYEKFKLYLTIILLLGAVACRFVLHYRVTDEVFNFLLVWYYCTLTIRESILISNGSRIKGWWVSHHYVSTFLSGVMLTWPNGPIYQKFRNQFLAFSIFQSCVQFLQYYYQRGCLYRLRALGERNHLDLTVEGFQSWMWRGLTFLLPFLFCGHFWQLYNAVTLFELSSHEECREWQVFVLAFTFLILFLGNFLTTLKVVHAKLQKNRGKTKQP
UniProt O75943: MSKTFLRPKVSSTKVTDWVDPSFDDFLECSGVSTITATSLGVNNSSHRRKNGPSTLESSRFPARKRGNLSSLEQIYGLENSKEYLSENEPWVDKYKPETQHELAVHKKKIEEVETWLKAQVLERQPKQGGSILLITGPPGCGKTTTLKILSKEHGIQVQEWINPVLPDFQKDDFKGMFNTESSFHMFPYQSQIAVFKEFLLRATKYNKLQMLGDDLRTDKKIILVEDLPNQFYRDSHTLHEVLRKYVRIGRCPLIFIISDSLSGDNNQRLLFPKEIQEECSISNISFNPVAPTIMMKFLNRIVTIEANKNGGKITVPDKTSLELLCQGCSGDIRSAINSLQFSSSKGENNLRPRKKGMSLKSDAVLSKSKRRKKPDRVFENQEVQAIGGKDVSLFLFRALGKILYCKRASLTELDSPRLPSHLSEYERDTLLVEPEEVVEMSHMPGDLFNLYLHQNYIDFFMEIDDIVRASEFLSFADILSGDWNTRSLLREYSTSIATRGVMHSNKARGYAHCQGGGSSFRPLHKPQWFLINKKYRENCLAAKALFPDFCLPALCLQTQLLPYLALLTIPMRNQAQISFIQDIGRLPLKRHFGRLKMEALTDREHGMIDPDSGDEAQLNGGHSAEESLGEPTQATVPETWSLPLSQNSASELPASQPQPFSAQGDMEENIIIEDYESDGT
UniProt Q9UI95, whole entry: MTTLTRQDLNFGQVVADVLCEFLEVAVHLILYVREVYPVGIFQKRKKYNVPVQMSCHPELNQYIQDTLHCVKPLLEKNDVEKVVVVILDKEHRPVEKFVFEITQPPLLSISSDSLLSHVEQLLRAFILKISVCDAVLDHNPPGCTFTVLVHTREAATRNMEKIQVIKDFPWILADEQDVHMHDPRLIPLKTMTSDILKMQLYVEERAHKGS
UniProt Q8WX92, whole entry: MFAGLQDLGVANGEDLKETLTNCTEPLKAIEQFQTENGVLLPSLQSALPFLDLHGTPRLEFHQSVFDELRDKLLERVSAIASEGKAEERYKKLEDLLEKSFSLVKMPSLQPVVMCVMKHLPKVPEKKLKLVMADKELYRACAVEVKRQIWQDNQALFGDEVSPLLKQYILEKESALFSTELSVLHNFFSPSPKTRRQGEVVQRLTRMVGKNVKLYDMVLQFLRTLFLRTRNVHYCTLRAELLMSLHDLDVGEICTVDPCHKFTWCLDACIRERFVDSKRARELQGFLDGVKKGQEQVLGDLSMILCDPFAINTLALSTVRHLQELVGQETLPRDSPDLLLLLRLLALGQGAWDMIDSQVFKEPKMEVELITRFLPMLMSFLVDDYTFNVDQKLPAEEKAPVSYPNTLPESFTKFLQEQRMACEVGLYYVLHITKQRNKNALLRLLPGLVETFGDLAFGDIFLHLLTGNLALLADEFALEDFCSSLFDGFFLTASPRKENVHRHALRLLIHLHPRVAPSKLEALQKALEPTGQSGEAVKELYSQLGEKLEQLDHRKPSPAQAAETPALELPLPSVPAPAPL
UniProt Q92664: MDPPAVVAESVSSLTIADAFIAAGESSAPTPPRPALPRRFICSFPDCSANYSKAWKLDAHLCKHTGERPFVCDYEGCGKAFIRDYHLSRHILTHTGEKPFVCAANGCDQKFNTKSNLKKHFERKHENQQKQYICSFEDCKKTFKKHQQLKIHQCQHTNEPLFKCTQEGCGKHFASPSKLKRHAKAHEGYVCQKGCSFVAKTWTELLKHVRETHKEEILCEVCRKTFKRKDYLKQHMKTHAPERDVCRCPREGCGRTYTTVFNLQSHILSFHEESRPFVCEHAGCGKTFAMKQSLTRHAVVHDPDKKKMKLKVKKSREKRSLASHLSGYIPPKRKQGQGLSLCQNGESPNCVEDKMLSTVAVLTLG
UniProt P25686: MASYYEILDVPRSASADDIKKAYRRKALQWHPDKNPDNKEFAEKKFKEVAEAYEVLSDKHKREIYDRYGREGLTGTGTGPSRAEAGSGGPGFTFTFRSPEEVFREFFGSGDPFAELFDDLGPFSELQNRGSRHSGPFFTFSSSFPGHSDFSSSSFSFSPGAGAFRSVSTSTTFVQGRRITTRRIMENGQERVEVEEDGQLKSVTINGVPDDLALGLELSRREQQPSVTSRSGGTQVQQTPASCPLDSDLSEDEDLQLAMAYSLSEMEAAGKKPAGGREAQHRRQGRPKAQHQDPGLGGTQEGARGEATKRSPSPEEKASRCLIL
UniProt O75832: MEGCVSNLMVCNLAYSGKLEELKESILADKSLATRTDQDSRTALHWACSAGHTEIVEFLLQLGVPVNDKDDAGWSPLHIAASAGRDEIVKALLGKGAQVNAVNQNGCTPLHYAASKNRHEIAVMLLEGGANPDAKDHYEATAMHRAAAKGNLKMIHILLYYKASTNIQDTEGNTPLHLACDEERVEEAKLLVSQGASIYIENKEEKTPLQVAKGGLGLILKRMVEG
UniProt P43243: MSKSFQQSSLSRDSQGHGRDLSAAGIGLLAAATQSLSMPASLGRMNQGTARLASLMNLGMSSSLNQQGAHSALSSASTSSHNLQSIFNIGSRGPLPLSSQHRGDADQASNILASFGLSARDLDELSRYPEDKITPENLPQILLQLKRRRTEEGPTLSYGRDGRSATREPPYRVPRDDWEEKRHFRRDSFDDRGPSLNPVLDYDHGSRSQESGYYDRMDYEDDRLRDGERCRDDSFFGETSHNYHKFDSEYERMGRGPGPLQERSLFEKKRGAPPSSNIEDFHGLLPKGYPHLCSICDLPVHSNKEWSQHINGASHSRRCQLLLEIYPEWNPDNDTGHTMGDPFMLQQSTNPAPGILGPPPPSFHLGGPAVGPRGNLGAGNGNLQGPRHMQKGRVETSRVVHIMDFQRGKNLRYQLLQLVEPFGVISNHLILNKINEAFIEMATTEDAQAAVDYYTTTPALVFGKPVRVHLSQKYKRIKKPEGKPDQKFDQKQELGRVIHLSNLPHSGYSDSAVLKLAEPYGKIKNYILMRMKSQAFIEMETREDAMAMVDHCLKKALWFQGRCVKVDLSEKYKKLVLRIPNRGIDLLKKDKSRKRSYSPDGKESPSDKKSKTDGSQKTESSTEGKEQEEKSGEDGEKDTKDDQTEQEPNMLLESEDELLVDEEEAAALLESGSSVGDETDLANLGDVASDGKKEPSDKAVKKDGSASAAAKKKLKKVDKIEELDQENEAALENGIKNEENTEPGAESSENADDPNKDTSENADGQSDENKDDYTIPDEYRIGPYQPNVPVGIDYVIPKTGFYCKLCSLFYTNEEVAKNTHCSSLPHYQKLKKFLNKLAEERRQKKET
UniProt P30626: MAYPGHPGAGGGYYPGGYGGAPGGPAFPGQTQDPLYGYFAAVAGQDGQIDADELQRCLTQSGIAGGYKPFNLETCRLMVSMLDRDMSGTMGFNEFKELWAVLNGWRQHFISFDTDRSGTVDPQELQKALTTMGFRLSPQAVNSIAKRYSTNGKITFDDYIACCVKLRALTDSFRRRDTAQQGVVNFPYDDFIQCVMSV
UniProt E9PIB1: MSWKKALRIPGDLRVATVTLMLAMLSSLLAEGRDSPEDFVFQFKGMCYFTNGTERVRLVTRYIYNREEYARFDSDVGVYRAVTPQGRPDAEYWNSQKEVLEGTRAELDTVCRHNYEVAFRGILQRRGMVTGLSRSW
UniProt Q13162: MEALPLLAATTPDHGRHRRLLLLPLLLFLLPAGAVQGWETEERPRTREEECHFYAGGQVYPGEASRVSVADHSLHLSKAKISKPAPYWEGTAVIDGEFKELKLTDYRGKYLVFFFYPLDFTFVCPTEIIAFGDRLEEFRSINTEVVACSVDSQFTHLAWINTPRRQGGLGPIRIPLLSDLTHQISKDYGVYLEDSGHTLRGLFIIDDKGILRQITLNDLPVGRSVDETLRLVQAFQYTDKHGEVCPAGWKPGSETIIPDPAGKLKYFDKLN
UniProt Q9H173: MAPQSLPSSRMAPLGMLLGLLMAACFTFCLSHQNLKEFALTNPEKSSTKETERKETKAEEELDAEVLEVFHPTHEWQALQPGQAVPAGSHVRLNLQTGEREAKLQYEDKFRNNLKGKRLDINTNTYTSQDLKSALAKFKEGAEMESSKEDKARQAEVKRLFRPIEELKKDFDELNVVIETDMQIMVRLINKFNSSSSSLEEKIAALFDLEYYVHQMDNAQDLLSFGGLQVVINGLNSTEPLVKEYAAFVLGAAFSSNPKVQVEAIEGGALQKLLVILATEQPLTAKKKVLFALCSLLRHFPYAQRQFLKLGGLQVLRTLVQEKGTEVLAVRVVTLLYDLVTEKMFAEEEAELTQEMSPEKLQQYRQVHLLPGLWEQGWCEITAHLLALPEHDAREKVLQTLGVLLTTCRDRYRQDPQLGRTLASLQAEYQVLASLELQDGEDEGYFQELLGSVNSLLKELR
UniProt B0I1T2: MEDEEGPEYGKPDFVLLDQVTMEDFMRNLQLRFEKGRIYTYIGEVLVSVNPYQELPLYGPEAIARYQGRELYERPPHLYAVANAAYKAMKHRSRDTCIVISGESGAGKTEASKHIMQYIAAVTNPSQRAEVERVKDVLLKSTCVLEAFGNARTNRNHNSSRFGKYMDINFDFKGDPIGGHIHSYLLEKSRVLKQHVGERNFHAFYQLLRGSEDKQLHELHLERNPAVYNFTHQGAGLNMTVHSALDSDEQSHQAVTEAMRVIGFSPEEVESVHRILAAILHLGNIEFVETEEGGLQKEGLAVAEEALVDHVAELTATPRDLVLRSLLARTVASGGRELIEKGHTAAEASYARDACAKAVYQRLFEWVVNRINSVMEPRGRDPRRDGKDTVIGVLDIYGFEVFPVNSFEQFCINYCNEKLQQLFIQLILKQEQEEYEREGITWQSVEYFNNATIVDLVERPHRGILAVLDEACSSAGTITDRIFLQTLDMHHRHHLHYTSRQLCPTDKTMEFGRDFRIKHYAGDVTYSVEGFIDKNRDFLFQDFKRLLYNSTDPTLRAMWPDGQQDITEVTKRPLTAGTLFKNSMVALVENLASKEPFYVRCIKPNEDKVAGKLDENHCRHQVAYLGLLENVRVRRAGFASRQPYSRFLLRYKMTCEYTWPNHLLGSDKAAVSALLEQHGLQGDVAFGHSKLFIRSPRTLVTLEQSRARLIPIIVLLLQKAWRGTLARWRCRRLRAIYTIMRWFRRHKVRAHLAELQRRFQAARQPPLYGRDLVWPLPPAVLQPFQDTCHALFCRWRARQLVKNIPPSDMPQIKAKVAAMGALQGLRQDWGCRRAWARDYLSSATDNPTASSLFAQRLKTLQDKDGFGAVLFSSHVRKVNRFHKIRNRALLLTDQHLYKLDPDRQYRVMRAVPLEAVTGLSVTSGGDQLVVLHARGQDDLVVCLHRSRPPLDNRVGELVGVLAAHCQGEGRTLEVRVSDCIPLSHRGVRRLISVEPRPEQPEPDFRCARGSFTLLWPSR

Compound: Nc1ncnc2c1ncn2[C@@H]1O[C@H](COP(=O)(O)OP(=O)(O)OP(=O)(O)O)[C@@H](O)[C@H]1O [adenosine triphosphate]
Experiment: NP40-soluble protein abundance relative to vehicle (solubility fold change) (ratio); higher = more soluble protein in presence of ATP
Summary of the method: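 Across three independent experiments, values are fold changes against the detergent-processed vehicle for each replicate, based on vsn-normalised intensities. The samples were Jurkat crude lysate treated with eight concentrations (0.1 to 10 mM) for 10 min at room temperature and then 3 min at 37 °C. Lysate was solubilised with 0.8% NP40 and benzonase, ultracentrifuged, and the supernatant analysed by TMT-labelled LC-MS/MS.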

Target	NP40-soluble protein abundance (concentration: 0.1mM)	NP40-soluble protein abundance (concentration: 0.5mM)	NP40-soluble protein abundance (concentration: 1mM)	NP40-soluble protein abundance (concentration: 2mM)	NP40-soluble protein abundance (concentration: 4mM)	NP40-soluble protein abundance (concentration: 6mM)	NP40-soluble protein abundance (concentration: 8mM)	NP40-soluble protein abundance (concentration: 10mM)
B7ZC38 and related entries (UniProt Q9NR46)	0.96 ± 0.024	0.961 ± 0.027	0.993 ± 0.015	0.977 ± 0.029	0.98 ± 0.033	0.981 ± 0.021	0.988 ± 0.056	0.936 ± 0.039
UniProt A0FGR8-2|H7BXI1 and related entries	1.04 ± 0.061	1.05 ± 0.032	1 ± 0.026	1.02 ± 0.025	1.02 ± 0.015	0.997 ± 0.052	1.02 ± 0.03	1.02 ± 0.047
A8MQ02 and related entries (UniProt P55196)	1.08 ± 0.0027	1.08 ± 0.046	–	–	–	–	–	–
D6REL5 and related entries (UniProt Q6UWZ7)	1.03 ± 0.052	1.01 ± 0.13	–	–	–	–	–	–
B0QY89 and related entries (UniProt Q9Y262)	1.01 ± 0.065	1.01 ± 0.05	1.09 ± 0.093	1.25 ± 0.15	1.23 ± 0.075	1.35 ± 0.072	1.6 ± 0.1	1.7 ± 0.12
TMEM120B (UniProt A0PK00)	0.94 ± 0.026	0.993 ± 0.068	0.948 ± 0.058	1.05 ± 0.042	1.04 ± 0.09	0.894 ± 0.12	1.15 ± 0.13	1.13 ± 0.14
A0A0G2JPT5|O75943 and related entries (UniProt O75943)	1.16 ± 0.1	1.51 ± 0.21	1.49 ± 0.28	1.59 ± 0.3	1.62 ± 0.32	1.7 ± 0.33	1.69 ± 0.28	1.65 ± 0.33
B1AK44 and related entries (UniProt Q9UI95)	1.01 ± 0.095	0.929 ± 0.068	0.999 ± 0.022	0.937 ± 0.037	0.978 ± 0.024	1.01 ± 0.087	1.05 ± 0.086	0.993 ± 0.059
A0A0X1KG71 (UniProt Q8WX92)	0.966 ± 0.011	1 ± 0.015	0.9808 ± 0.0083	0.989 ± 0.012	0.9482 ± 0.0081	0.959 ± 0.033	0.959 ± 0.022	0.956 ± 0.023
B7ZBK4 and related entries (UniProt Q92664)	1.02 ± 0.04	1.04 ± 0.048	1.02 ± 0.021	1.03 ± 0.035	1 ± 0.042	0.9904 ± 0.0034	0.989 ± 0.026	0.976 ± 0.053
C9JRD2 and related entries (UniProt P25686)	0.99 ± 0.052	0.951 ± 0.03	0.969 ± 0.038	0.956 ± 0.019	0.956 ± 0.022	0.971 ± 0.06	0.973 ± 0.016	0.977 ± 0.025
UniProt A7KAX9 and related entries	0.986 ± 0.057	0.924 ± 0.034	0.937 ± 0.054	0.91 ± 0.046	0.908 ± 0.0074	0.907 ± 0.024	0.904 ± 0.04	0.941 ± 0.018
B1AJY7 and related entries (UniProt O75832)	0.972 ± 0.051	0.931 ± 0.085	1 ± 0.082	0.973 ± 0.031	0.955 ± 0.065	0.977 ± 0.076	0.947 ± 0.056	0.863 ± 0.043
A8MXP9 and related entries (UniProt P43243)	0.988 ± 0.013	1.06 ± 0.03	1.02 ± 0.042	1.03 ± 0.038	1 ± 0.026	1.05 ± 0.039	1 ± 0.029	1.03 ± 0.015
C9J0K6 and related entries (UniProt P30626)	0.872 ± 0.12	0.824 ± 0.2	0.887 ± 0.066	0.921 ± 0.078	0.892 ± 0.039	0.911 ± 0.072	0.896 ± 0.011	0.811 ± 0.12
D0EV57 and related entries (UniProt Q29718+Q29940+E9PIB1+Q8MH48+Q6DU44+Q5SRN5+D0EV57+P01889+P10321+P30505+P13746+P30499+P16188+P30493+Q29865+P30504+P30508+P30685+O19617+Q29963)	1.01 ± 0.014	1.02 ± 0.026	0.961 ± 0.026	0.9786 ± 0.0089	0.9485 ± 0.0059	0.977 ± 0.013	0.949 ± 0.022	0.96 ± 0.015
A6NG45 and related entries (UniProt Q13162)	1.06 ± 0.034	1.05 ± 0.04	1.07 ± 0.057	1.01 ± 0.042	0.975 ± 0.041	0.953 ± 0.07	1.03 ± 0.034	0.992 ± 0.033
D6REA1 and related entries (UniProt Q9H173)	0.947 ± 0.11	0.923 ± 0.027	0.922 ± 0.083	0.938 ± 0.046	0.92 ± 0.083	0.929 ± 0.11	0.917 ± 0.063	0.8663 ± 0.0052
B1AKN5 and related entries (UniProt Q12857)	1.09 ± 0.072	1.06 ± 0.05	1.22 ± 0.072	1.08 ± 0.11	1.12 ± 0.081	1.21 ± 0.13	0.995 ± 0.072	1.13 ± 0.033
A0A0G2JPP5|Q14160 and related entries (UniProt Q14160)	1.01 ± 0.018	0.986 ± 0.064	0.973 ± 0.016	0.96 ± 0.02	0.9694 ± 0.0075	0.98 ± 0.023	0.93 ± 0.021	0.941 ± 0.031
MYO1G (UniProt B0I1T2)	1.01 ± 0.013	1.92 ± 0.17	3.09 ± 0.27	3.32 ± 0.48	3.48 ± 0.58	3.19 ± 0.4	3.7 ± 0.64	3.52 ± 0.5
A8MT02 and related entries (UniProt P14678)	1.04 ± 0.14	1.06 ± 0.038	1.22 ± 0.14	1.34 ± 0.089	1.47 ± 0.05	1.7 ± 0.26	1.7 ± 0.22	1.63 ± 0.13

Retrieved one by one from above:
Target	NP40-soluble protein abundance (concentration: 0.1mM)	NP40-soluble protein abundance (concentration: 0.5mM)	NP40-soluble protein abundance (concentration: 1mM)	NP40-soluble protein abundance (concentration: 2mM)	NP40-soluble protein abundance (concentration: 4mM)	NP40-soluble protein abundance (concentration: 6mM)	NP40-soluble protein abundance (concentration: 8mM)	NP40-soluble protein abundance (concentration: 10mM)
B1AJY7 and related entries (UniProt O75832)	0.972 ± 0.051	0.931 ± 0.085	1 ± 0.082	0.973 ± 0.031	0.955 ± 0.065	0.977 ± 0.076	0.947 ± 0.056	0.863 ± 0.043
A6NG45 and related entries (UniProt Q13162)	1.06 ± 0.034	1.05 ± 0.04	1.07 ± 0.057	1.01 ± 0.042	0.975 ± 0.041	0.953 ± 0.07	1.03 ± 0.034	0.992 ± 0.033
